A: 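Lysine-tRNA ligase, Plasmodium falciparum 3D7 (UniProt Q8IDJ8). Enzyme assay of the cytosolic lysyl-tRNA synthetase in 384-well plates, read by luminescence. Tested at 30 µM. Higher reads as stronger inhibition, judged from the few compounds that gave an IC50. About 69,000 compounds were tested under these conditions; 0.071% (about 49) showed 50% or more at least once.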
B: 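Tryptophan-tRNA ligase, Mycobacterium tuberculosis (UniProt P9WFT3). Enzyme assay of tryptophanyl-tRNA synthetase; the read-out is not stated. Compounds at 10 µM. Higher most likely means stronger inhibition; the record gives no direction and few retests gave an IC50. About 65,000 compounds were tested under these conditions; 0.098% (about 64) showed 50% or more at least once.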

The chains behind the UniProt entries cited, without tags or fusion partners. Residues count along the entry.
UniProt Q8IDJ8, 1-583: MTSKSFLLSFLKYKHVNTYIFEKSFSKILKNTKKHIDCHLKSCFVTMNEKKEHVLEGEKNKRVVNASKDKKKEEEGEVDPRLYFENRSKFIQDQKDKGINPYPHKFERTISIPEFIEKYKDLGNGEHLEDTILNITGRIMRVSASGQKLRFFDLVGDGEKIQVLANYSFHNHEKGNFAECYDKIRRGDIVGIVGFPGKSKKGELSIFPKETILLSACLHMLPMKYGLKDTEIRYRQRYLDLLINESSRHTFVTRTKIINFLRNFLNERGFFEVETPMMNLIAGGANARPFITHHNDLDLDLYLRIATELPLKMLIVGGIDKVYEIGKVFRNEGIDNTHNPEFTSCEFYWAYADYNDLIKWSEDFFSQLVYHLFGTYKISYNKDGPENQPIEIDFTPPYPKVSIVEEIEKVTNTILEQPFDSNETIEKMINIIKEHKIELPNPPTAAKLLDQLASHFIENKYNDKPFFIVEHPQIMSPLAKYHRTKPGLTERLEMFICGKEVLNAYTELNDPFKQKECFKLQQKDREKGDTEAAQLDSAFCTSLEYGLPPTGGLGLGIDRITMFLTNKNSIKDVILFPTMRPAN
UniProt P9WFT3, whole entry: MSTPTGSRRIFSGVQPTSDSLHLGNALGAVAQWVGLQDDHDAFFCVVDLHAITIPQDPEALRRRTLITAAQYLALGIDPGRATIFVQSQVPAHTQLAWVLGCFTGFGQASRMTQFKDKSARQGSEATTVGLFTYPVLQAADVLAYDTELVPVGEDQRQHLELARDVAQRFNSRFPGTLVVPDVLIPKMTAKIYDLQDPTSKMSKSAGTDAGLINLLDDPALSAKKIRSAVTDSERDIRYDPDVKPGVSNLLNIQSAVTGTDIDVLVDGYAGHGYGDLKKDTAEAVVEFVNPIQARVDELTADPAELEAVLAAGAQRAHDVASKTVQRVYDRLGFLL

The filed quantity is “Percent Effect” (%). The controls that fix the scale are not given in the record; negative values are as filed. This is an unselected part of the compounds tested. A dash means the value is not listed here; it may have been measured.

SMILES,A,B
c1cncc(CN2CCCC(c3nnc(-c4cnccn4)o3)C2)c1 (stereo not drawn),2.137%,-
O=C(NC1CCCCC1)c1ccc(Oc2ccc3nncn3n2)cc1,0.2517%,2.654%
COc1c(CNCCC(=O)NC2CCCCC2)c(C(C)C)nn1C,0.5605%,-2.715%
O=C(Cc1ccccn1)N1C[C@H](OCc2cccnc2)[C@H]2COC[C@H]21,-3.658%,-4.083%
Cc1cc(C)n(CC2CCCN2C(=O)c2cncnc2C)n1 (stereo not drawn),-1.21%,-5.128%
CCn1ccnc1CN1CCCN(C(=O)Cc2ccc(C)s2)CC1,-3.189%,26.86%
COCC(=O)N1CCCN(Cc2cc(O)c3ccccc3n2)CC1,3.272%,1.087%
CCN(CC)C(=O)c1ccn(COc2c(Cl)cccc2Cl)n1,3.353%,-0.7772%
CN(CCC(=O)N1CCc2sccc2C1)Cc1cnn(C)c1,1.434%,-6.23%
CC(C)Cc1cc(NC(=O)c2ccc3[nH]nnc3c2)n(C)n1,2.238%,3.396%
CCc1cc(NCCCOC2CCCC2)ncn1,7.295%,-0.2441%
Cn1c(CCC(=O)N2CCCC3(CC2)CNC(=O)O3)nc2cccnc21 (stereo not drawn),-11.1%,-2.318%
O=C(c1ccccn1)N1CCC2(CC1)COC(COc1cccnc1)C2 (stereo not drawn),-2.95%,-2.441%
CC(C)Oc1ccc(C(=O)N2CCC(Nc3cccnn3)CC2)cn1,1.273%,2.006%
CN1CCNC(Cc2ccc(-c3cccs3)cc2)C1=O (stereo not drawn),-0.3917%,-32.06%
CC(C)Cc1nc(CS(C)(=O)=O)n(-c2ccccn2)n1,0.837%,-1.917%
COC(=O)[C@@H]1CN(S(=O)(=O)c2ccccc2)CCN1S(C)(=O)=O,3.975%,-0.2259%
Cc1cccc2[nH]c(COCC(=O)N3CCCn4cncc4C3)nc12,1.102%,0.161%
CCN(CC)CC(=O)N1CCCC1Cn1cccn1 (stereo not drawn),-0.8813%,-6.648%
O=C(NCc1ccccc1OCCO)Nc1ccc2c(c1)CCC2,5.632%,-2.43%
Cc1ccc(N2CCC3(CN(CCO)CCC3(F)F)C2)nn1 (stereo not drawn),2.719%,-
Cc1cc2nc(C(=O)NCc3cccnc3N(C)C)cc(C)n2n1,3.451%,-0.8675%
Fc1ccc(CNCc2nnc3n2CC(C(F)(F)F)CC3)cc1 (stereo not drawn),5.576%,1.373%
Cc1csc(CCCNC(C)CC(=O)Nc2cccc(C)c2C)n1 (stereo not drawn),-3.767%,-5.128%
Cc1ccc(S(=O)(=O)Nc2ccc(=O)n(C)c2)cc1,21.84%,6.216%
Cc1ccc(S(=O)(=O)N2CCN(CCCO)CC2)s1,7.368%,1.677%
CC(C)=CCS(=O)(=O)Cc1noc(CC(C)C)n1,2.892%,-2.602%
CCOCc1ccccc1NC(=O)NC1CCN(CC(F)(F)F)C1 (stereo not drawn),1.366%,-1.583%
CN(Cc1cscn1)C1CCCN(Cc2noc(C3CC3)n2)C1 (stereo not drawn),-5.697%,0.6823%
Cc1ccc(CN(C(=O)NCC2CCCO2)C2CC2)o1 (stereo not drawn),5.392%,-2.949%
O=C(c1cnccn1)N1CCCC2(CCN(Cc3ccsc3)CC2)C1,0.5425%,-7.89%
CCc1noc(C(C)N2CCN(Cc3ncc(C(C)(C)C)o3)CC2)n1 (stereo not drawn),-0.3274%,0.7862%
Cc1nc2c(c(=O)n1C)CN(C(=O)C1CCN(C(=O)C3CCC3)CC1)C2,-4.108%,2.437%
CCS(=O)(=O)N1CCc2ncnc(OC)c2CC1,1.6%,0.4933%
COCC1Cn2nnc(-c3cnn(C)c3)c2CN1Cc1ccc(C)s1 (stereo not drawn),7.021%,-1.313%
Cc1ccc(CN2CCOC3(CCN(C(=O)C4CCOC4)CC3)C2)cc1 (stereo not drawn),-3.627%,2.185%
COCCNC(=O)C[C@@H]1COC[C@H]2CN(C(=O)c3cnccn3)C[C@@H]12,3.647%,-0.9046%
FC(F)(F)c1ccnc(N2CCC(c3nccn3CC3CC3)CC2)n1,-1.196%,-1.354%
CO[C@H]1CN(C(=O)c2ccc3oc(C)cc3c2)CC[C@@]12CCCO2,3.697%,-1.254%
Cc1cnc(NC2CCN(CC(=O)Nc3ccccc3)CC2)nc1C,-1.581%,13%
Cc1ccc(C(=O)N2CCOC(c3nc(C(C)(C)C)n[nH]3)C2)c(=O)[nH]1 (stereo not drawn),1.601%,-3.439%
CN(C)Cc1ccc(C2CCCCN2C(=O)c2cccc(CO)n2)cc1 (stereo not drawn),2.238%,3.759%
FC(F)(F)c1cccc(N2CCC(NCc3cccnc3)CC2)c1,1.118%,1.713%
N#Cc1ccc(OC[C@]23COC[C@H]2CN(Cc2ccccn2)C3)nc1,2.467%,-6.456%
CN(Cc1nc(-c2ccccc2)no1)C(=O)CNS(C)(=O)=O,4.846%,-0.7346%
COCCCN1C(=O)CC[C@H]2CN(Cc3ccc4occc4c3)CC[C@H]21,3.497%,-6.428%
O=C(NCc1nncn1C1CC1)C1(c2ccccc2)CCOCC1,-2.732%,2.511%
CN(C)CC1CSCCCN1C(=O)c1ccc(=O)[nH]c1 (stereo not drawn),2.092%,-0.5513%
Cc1cc(C2CCCN(C(=O)COc3ccc(F)cc3)C2)n[nH]1 (stereo not drawn),2.589%,-0.3749%
Cc1nc(C)n(CC2CCCN2Cc2cc(C)on2)n1 (stereo not drawn),-3.333%,2.424%
CC(C)C(=O)N(C)Cc1nnc2n1CCCCC2,-2.733%,4.137%
CO[C@H]1CN(C(C)C)C[C@@H]1NC(=O)Nc1cccc(SC)c1,-4.71%,5.003%
COc1ccc2[nH]cc(-c3ccnc(NC4CCCC4)n3)c2c1,2.62%,-
O=C(c1cn(-c2ccccc2Cl)nn1)N1CCN(CCO)CC1,5.151%,7.124%
CCOc1ccc(C(=O)CCC(=O)NCc2cncn2CC)cc1C,-8.884%,-4.009%
COc1cccc(-n2cc(-c3ccnc(NC(CO)C(C)C)n3)cn2)c1 (stereo not drawn),-8.474%,-37.52%

For reference, 5 entries once more:

{"smiles": "Cc1ccc(CN(C(=O)NCC2CCCO2)C2CC2)o1", "stereo": "stereo not drawn", "A": 5.392, "B": -2.949}
{"smiles": "CN(Cc1cscn1)C1CCCN(Cc2noc(C3CC3)n2)C1", "stereo": "stereo not drawn", "A": -5.697, "B": 0.6823}
{"smiles": "O=C(Cc1ccccn1)N1C[C@H](OCc2cccnc2)[C@H]2COC[C@H]21", "A": -3.658, "B": -4.083}
{"smiles": "Cc1nc2c(c(=O)n1C)CN(C(=O)C1CCN(C(=O)C3CCC3)CC1)C2", "A": -4.108, "B": 2.437}
{"smiles": "CN(C)CC1CSCCCN1C(=O)c1ccc(=O)[nH]c1", "stereo": "stereo not drawn", "A": 2.092, "B": -0.5513}

Data taken from ChEMBL document CHEMBL3988442, “University of Dundee, Small-Polar-MMV Screening Library” (2021).